PubChem BioAssay AID652248 | Drosophila RNAi Screening Center – 2013
Assay: 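Genes that govern switching among distinct shape types in fly blood cells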 (primary screen). Cell system: cultured Drosophila hemocytes. Reagent: long dsRNA against Drosophila genes. Detection: 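Automated microscopy of stained actin, tubulin and nuclei; single-cell shape measures assigned to five reference shape types, giving a score per dsRNA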. Scale: elongated score: higher = more elongated bipolar cells; normal round score: higher = more normal rounded cells. Active means: 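Hits show a significant increase of elongated cells; higher rank given where elongated cells rose as other shape types fell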.
The deposit covers 863 reagents; shown is an unselected part. Of all reagents, 32 (3.7%) are marked active. 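Calls also used reproducibility and a similarity ranking whose scores are not deposited; many active genes show only modest elongated scores.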 A plus sign joins genes that one reagent is predicted to hit. Further read-outs or replicates are left out here. Not stated in the record: the amount of reagent, the time to read-out.

With knock-down of I-2 [DRSC11194], the screen gave elongated score, rep 1 = -0.53; normal round score, rep 1 = 0.77; inactive.
With knock-down of I-2 [DRSC23300], the record shows elongated score, rep 1 = -0.2; normal round score, rep 1 = -0.32; inactive.
Tao [DRSC19573] showed elongated score, rep 1 = 3.25; elongated score, rep 2 = -0.3; normal round score, rep 1 = -1.77; inactive.
Against Tao [DRSC19574], the values are elongated score, rep 1 = 5.55; elongated score, rep 2 = -0.29; normal round score, rep 1 = -2.25; inactive.
Depletion of Tao [DRSC22639] came out at: elongated score, rep 1 = -0.22; normal round score, rep 1 = -1.72; inactive.
After knock-down of Tao [DRSC28431] the results were elongated score, rep 1 = 0.39; normal round score, rep 1 = -0.36; inactive.
Knock-down of PEK [DRSC12361] gave: elongated score, rep 1 = -0.03; elongated score, rep 2 = -0.26; normal round score, rep 1 = -1.56; inactive.
Alp5 [DRSC14269] showed elongated score, rep 1 = -0.41; normal round score, rep 1 = -0.05; inactive.
Alp5 [DRSC29539] showed elongated score, rep 1 = 4.87; normal round score, rep 1 = -2.41; inactive.
Against CG1227 [DRSC12534] the deposit lists elongated score, rep 1 = -0.53; normal round score, rep 1 = 0.27; inactive.
For CG1227 [DRSC25952], the entry reads elongated score, rep 1 = -0.45; normal round score, rep 1 = -2.35; inactive.
CG17528 [DRSC07761] scored elongated score, rep 1 = -0.53; normal round score, rep 1 = -0.37; inactive.
Against CG8173 [DRSC20088], the values are elongated score, rep 1 = 0.76; normal round score, rep 1 = -0.79; inactive.
Depletion of Irbp [DRSC17007] gave: elongated score, rep 1 = -0.53; normal round score, rep 1 = -0.03; inactive.
Irbp [DRSC23317] scored elongated score, rep 1 = -0.53; normal round score, rep 1 = -1.14; inactive.
Depletion of Irbp [DRSC29386] came out at: elongated score, rep 1 = 3.19; normal round score, rep 1 = -1.95; inactive.
With knock-down of Prp4k [DRSC08144] the results were elongated score, rep 1 = 2.16; normal round score, rep 1 = -0.42; inactive.
After knock-down of Prp4k [DRSC27510] the results were elongated score, rep 1 = 2.25; normal round score, rep 1 = -2.85; inactive.
With knock-down of Cdk9 [DRSC04601] the results were elongated score, rep 1 = -0.53; normal round score, rep 1 = -2.57; inactive.
After knock-down of mod(mdg4) + pre-mod(mdg4)-T + pre-mod(mdg4)-Z [DRSC13477] the results were elongated score, rep 1 = -0.53; normal round score, rep 1 = 0.57; inactive.
mod(mdg4) + pre-mod(mdg4)-T + pre-mod(mdg4)-Z [DRSC17001] showed elongated score, rep 1 = -0.53; normal round score, rep 1 = 0.03; inactive.
PRL-1 [DRSC03393] showed elongated score, rep 1 = -0.32; normal round score, rep 1 = 0.56; inactive.
Depletion of PRL-1 [DRSC27332] resulted in: elongated score, rep 1 = 0.88; normal round score, rep 1 = -1.79; inactive.
For PpV [DRSC18700], the values are elongated score, rep 1 = -0.53; normal round score, rep 1 = 0.3; inactive.
After knock-down of PpV [DRSC23307], the record shows elongated score, rep 1 = 1.24; normal round score, rep 1 = -1.12; inactive.
Depletion of PpV [DRSC29344] came out at: elongated score, rep 1 = 2.25; normal round score, rep 1 = -1.23; inactive.
After knock-down of Bub1 [DRSC23158] the results were elongated score, rep 1 = -0.28; normal round score, rep 1 = 0.02; inactive.
Against Bub1 [DRSC27436], the values are elongated score, rep 1 = 0.94; normal round score, rep 1 = -0.45; inactive.
Against CG3494 [DRSC04375], the values are elongated score, rep 1 = 1.29; normal round score, rep 1 = -0.11; inactive.
Silencing of CG9784 [DRSC20210] resulted in: elongated score, rep 1 = 0.65; normal round score, rep 1 = -0.44; inactive.
Knock-down of CG9784 [DRSC28204] came out at: elongated score, rep 1 = 0.47; normal round score, rep 1 = -2.26; inactive.
sds22 [DRSC17052] gave elongated score, rep 1 = 0.36; normal round score, rep 1 = 0.45; inactive.
Mekk1 [DRSC16302] showed elongated score, rep 1 = -0.18; normal round score, rep 1 = -0.12; inactive.
Against Mekk1 [DRSC16303], the values are elongated score, rep 1 = -0.45; normal round score, rep 1 = 0.59; inactive.
With knock-down of rl [DRSC07833] the results were elongated score, rep 1 = 1.3; normal round score, rep 1 = -0.65; active.
Knock-down of rl [DRSC20742] came out at: elongated score, rep 1 = 1.07; normal round score, rep 1 = -0.59; active.
rl [DRSC21814] gave elongated score, rep 1 = 4.6; normal round score, rep 1 = -1.81; active.
Pka-R1 [DRSC11875] gave elongated score, rep 1 = -0.53; normal round score, rep 1 = 0.57; inactive.
After knock-down of Coq8 [DRSC19900], the record shows elongated score, rep 1 = 0.18; normal round score, rep 1 = -0.17; inactive.
After knock-down of cert [DRSC09674], the screen gave elongated score, rep 1 = 0.54; normal round score, rep 1 = -0.63; inactive.
For acj6 [DRSC20304], the entry reads elongated score, rep 1 = 1.74; normal round score, rep 1 = -5.82; inactive.
acj6 [DRSC29003] scored elongated score, rep 1 = 1.07; normal round score, rep 1 = -1.9; inactive.
Depletion of CkIalpha [DRSC20231] resulted in: elongated score, rep 1 = -0.53; normal round score, rep 1 = 0.24; inactive.
After knock-down of CkIalpha [DRSC22609], the screen gave elongated score, rep 1 = -0.53; normal round score, rep 1 = -2.58; inactive.
Knock-down of CkIalpha [DRSC23308] resulted in: elongated score, rep 1 = -0.53; normal round score, rep 1 = 0.62; inactive.
CkIalpha [DRSC25564] scored elongated score, rep 1 = 1.12; normal round score, rep 1 = -4.34; inactive.
